Data source: PubChem BioAssay AID602196 (INSERM, 2012)
The deposit covers about 23,000 reagents; shown is an unselected part. 455 of them (2%) count as active. 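Active includes both protection and sensitisation; some change values fall well beyond the stated -50 to +50 range.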 Reagents against one gene are numbered here. Not all columns of the deposit are shown. Reagent sequences are not shown. Not given: the amount of reagent.

- Test: 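Genes whose knock-down alters cisplatin killing of lung cancer cells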
- System: human A549 lung cancer cells
- Reagent: siRNA pair against human genes
- Time to read-out: 48 h transfection before cisplatin; time from cisplatin to read-out not stated
- Challenge: cisplatin at a dose killing half of control-siRNA cells; exact dose and duration not given
- Read-out: 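Cisplatin cell death as a shift from the 50% death seen with control siRNA; siRNAs toxic or growth-blocking alone scored 0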
- Scale: two-siRNA summed score (-2 to +2): higher = both siRNAs protect from cisplatin killing; -2 means both sensitise
- Hit rule: 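Each siRNA scores 0 if harmful alone by LDH or WST-1, otherwise +1 if it reduces and -1 if it increases cisplatin killing; a gene is active when both siRNAs agree (sum +2 or -2)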
- Calls: active = both siRNAs shift cisplatin killing the same way; inactive = no consistent shift, or siRNA harmful alone

What is on record for LINC02897?
two-siRNA summed score (-2 to +2): 0; activity call: inactive

With PSMC4, what does the deposit list?
two-siRNA summed score (-2 to +2): 0; activity call: inactive

With XYLT1, how do the results read?
two-siRNA summed score (-2 to +2): -1; activity call: inactive

For LOC142937 (retired record), what does the deposit list?
two-siRNA summed score (-2 to +2): 1; activity call: inactive

What did the screen give for GPR83?
two-siRNA summed score (-2 to +2): 0; activity call: inactive

Which result is listed for LOC392267?
two-siRNA summed score (-2 to +2): 0; activity call: inactive

How did the screen score CCDC26?
two-siRNA summed score (-2 to +2): 1; activity call: inactive

With LOC440545, what does the deposit list?
two-siRNA summed score (-2 to +2): 1; activity call: inactive

For EHF, what was measured?
two-siRNA summed score (-2 to +2): -1; activity call: inactive

Which result is listed for LOC440897?
two-siRNA summed score (-2 to +2): 1; activity call: inactive

For ZMYM5, what does the deposit list?
two-siRNA summed score (-2 to +2): 0; activity call: inactive

How did the screen score DOT1L?
two-siRNA summed score (-2 to +2): 0; activity call: inactive

With AATF, how do the results read?
two-siRNA summed score (-2 to +2): 0; activity call: inactive

With TRRAP, what was measured?
two-siRNA summed score (-2 to +2): -1; activity call: inactive

How did the screen score LOC441507?
two-siRNA summed score (-2 to +2): 0; activity call: inactive

For METTL2A, what does the deposit list?
two-siRNA summed score (-2 to +2): -1; activity call: inactive

Which result is listed for OR5I1?
two-siRNA summed score (-2 to +2): 0; activity call: inactive

With GAK, what does the deposit list?
two-siRNA summed score (-2 to +2): 0; activity call: inactive

How did the screen score LOC391209?
two-siRNA summed score (-2 to +2): 0; activity call: inactive

For KLK5, how do the results read?
two-siRNA summed score (-2 to +2): 0; activity call: inactive

With GALNT14, what does the deposit list?
two-siRNA summed score (-2 to +2): 0; activity call: inactive

What is on record for RNF207 #1?
two-siRNA summed score (-2 to +2): 0; activity call: inactive

With RNF207 #2, what was measured?
two-siRNA summed score (-2 to +2): 1; activity call: inactive

How did the screen score MT1M?
two-siRNA summed score (-2 to +2): 0; activity call: inactive

What did the screen give for LOC441130?
two-siRNA summed score (-2 to +2): 0; activity call: inactive

Which result is listed for GABPB1?
two-siRNA summed score (-2 to +2): 1; activity call: inactive

What is on record for SYT12?
two-siRNA summed score (-2 to +2): 0; activity call: inactive

What did the screen give for CPLANE2?
two-siRNA summed score (-2 to +2): 0; activity call: inactive

For KCTD17, what was measured?
two-siRNA summed score (-2 to +2): 0; activity call: inactive

For LDHA, what does the deposit list?
two-siRNA summed score (-2 to +2): 0; activity call: inactive

Which result is listed for ANGPTL2?
two-siRNA summed score (-2 to +2): 0; activity call: inactive
